{"sequences": {"note": "Protein sequences, listed by entry. Tags and fused reporters are not part of them. Lines headed by an entry give the natural chain unless they say otherwise; changes in a name come on top.", "UniProt P93835": "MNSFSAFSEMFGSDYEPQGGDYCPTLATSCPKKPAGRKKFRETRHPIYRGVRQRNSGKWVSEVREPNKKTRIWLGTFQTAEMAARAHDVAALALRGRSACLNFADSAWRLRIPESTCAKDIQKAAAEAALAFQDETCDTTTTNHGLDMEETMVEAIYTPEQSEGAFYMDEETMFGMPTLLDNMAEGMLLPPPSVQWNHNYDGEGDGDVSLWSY"}, "source": "paper PMC8389195", "target": "MBP-CBF1 (Arabidopsis thaliana) (UniProt P93835)", "test": "EMSA", "conditions": "without Trx-h2 or Trx-h2(G/A); EMSA kit (Thermo Fisher), poly(dI-dC) binding buffer, NADPH/Trx reductase/Trx-h2 system, 6% polyacrylamide gel; proteins dialyzed in 20 mM HEPES-NaOH pH 8.0; recombinant protein; residues 1-213; protein details: MBP (N-terminal, pMAL vector)", "note": "The exact form of at least one protein or probe is not confirmed. Weaker means in comparison with the reference protein, sequence or condition of that experiment. At least one verdict was read from the data and is not stated in words by the source."}
{"sequence": "ATTTCATGGCCGACCTGCTTTTT (double strand) [COR15a promoter CRT/DRE probe]", "values": [{"measurement": "binding result", "result": "binds more weakly"}]}
